{
  "sequences": {"note": "By UniProt entry, the sequences of proteins in these tests, tags left out. Where a name states a change or a piece, a line headed by the entry shows the natural chain unless it says otherwise.", "UniProt Q13148": "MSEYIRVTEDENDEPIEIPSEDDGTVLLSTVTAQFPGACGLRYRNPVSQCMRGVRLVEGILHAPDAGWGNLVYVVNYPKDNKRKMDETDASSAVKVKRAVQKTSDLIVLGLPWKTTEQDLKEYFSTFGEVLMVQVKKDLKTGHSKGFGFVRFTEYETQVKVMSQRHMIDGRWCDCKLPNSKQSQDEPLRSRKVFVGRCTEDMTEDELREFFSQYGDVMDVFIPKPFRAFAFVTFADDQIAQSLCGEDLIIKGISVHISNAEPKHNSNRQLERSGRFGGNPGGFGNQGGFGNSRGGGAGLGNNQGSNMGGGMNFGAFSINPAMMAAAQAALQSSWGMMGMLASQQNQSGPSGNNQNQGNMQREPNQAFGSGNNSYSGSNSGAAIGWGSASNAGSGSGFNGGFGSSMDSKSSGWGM", "UniProt P08515, whole entry": "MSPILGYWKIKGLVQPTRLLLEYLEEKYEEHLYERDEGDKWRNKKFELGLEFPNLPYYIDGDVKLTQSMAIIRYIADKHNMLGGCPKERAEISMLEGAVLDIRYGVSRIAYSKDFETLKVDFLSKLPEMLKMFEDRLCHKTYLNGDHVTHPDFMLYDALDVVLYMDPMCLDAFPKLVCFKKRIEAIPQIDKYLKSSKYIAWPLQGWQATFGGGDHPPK"},
  "source": "paper PMC10097714",
  "key": {"[1]": {"molecular_target": "GST-GR WT (human) (UniProt Q13148)", "experiment": "SPR", "settings": "50 nM protein; 3' DNA dA16 tail on RNA; SPR: 20 mM PIPES pH 6.8, 12 mM KCl, 0.8 mM MgCl2, 150 mM NaCl, 0.05% Tween-20, 25 C; recombinant protein; protein details: GST"}, "[2]": {"molecular_target": "GST (UniProt P08515)", "experiment": "EMSA (agarose)", "settings": "GST-only control, same for CaMKIIa G4; EMSA: 20 mM PIPES-NaOH pH 6.8, 150 mM NaCl, 0.8 mM MgCl2, 10% glycerol, 0.1 mg/ml BSA, 0.1 mg/ml poly-dI-dC, 25 C, gel 0.5x TBE pH 6.8; recombinant protein; label: 5' Cy3, 3' Alexa Fluor 647"}, "[3]": {"molecular_target": "GST-GR WT (human) (UniProt Q13148)", "experiment": "EMSA (agarose)", "settings": "no cross-linking, complex not stable in gel; EMSA: 20 mM PIPES-NaOH pH 6.8, 150 mM NaCl, 0.8 mM MgCl2, 10% glycerol, 0.1 mg/ml BSA, 0.1 mg/ml poly-dI-dC, 25 C, gel 0.5x TBE pH 6.8; recombinant protein; protein details: GST; label: 5' Cy3, 3' Alexa Fluor 647"}, "[4]": {"molecular_target": "GST-GR WT (human) (UniProt Q13148)", "experiment": "UV cross-linking, SDS-PAGE", "settings": "1-4 pmol protein; UV cross-linking: EMSA buffer without poly-dI-dC; recombinant protein; protein details: GST; label: 5' Cy3, 3' Alexa Fluor 647"}, "[5]": {"molecular_target": "GST-GR WT (human) (UniProt Q13148)", "experiment": "CD", "settings": "1 uM each, no change of 265 nm positive peak; recombinant protein; protein details: GST"}},
  "note": "The exact form of at least one protein or probe is not confirmed. For some assays here: Negatives hold for the conditions tested. For some assays here: At least one verdict rests on a figure or table, not on a statement of the authors.",
  "data": [
    {"sequence": "GGGGAAAAGGGAGGGAUGGGAAAAAAAAAAAAAAAA [PSD-95 G4 dA16]", "values": [
      {"measurement": "binding result", "setting": "[1]", "value": "binds"}
    ]},
    {"sequence": "UGGGGGGGGCGGGUGGGAUGGGAAAAAAAAAAAAAAAAA [CaMKIIa G4 dA16]", "values": [
      {"measurement": "binding result", "setting": "[1]", "value": "binds"}
    ]},
    {"sequence": "GGGGAAAAGGGAGGGAUGGG [Cy3-PSD-Ax647]", "values": [
      {"measurement": "binding result", "setting": "[2]", "value": "no binding"},
      {"measurement": "binding result", "setting": "[3]", "value": "no binding"},
      {"measurement": "binding result", "setting": "[4]", "value": "binds"}
    ]},
    {"sequence": "UGGGGGGGGCGGGUGGGAUGGGA [CaMKIIa G4]", "values": [
      {"measurement": "binding result", "setting": "[5]", "value": "binds"}
    ]},
    {"sequence": "UGGGGGGGGCGGGUGGGA [Cy3-CaMKII-Ax647]", "values": [
      {"measurement": "binding result", "setting": "[3]", "value": "no binding"},
      {"measurement": "binding result", "setting": "[4]", "value": "binds"}
    ]}
  ]
}
